Source: publication PMC6028389, “Dedicated surveillance mechanism controls G-quadruplex forming non-coding RNAs in human mitochondria”

Chains of the proteins cited; added tags and fusions are not shown. Residues count along the entry.
UniProt Q12849, 118-480 Q155A/W159A/E223A/R255A/Y259A/E320A/R406A/F410A/E470A: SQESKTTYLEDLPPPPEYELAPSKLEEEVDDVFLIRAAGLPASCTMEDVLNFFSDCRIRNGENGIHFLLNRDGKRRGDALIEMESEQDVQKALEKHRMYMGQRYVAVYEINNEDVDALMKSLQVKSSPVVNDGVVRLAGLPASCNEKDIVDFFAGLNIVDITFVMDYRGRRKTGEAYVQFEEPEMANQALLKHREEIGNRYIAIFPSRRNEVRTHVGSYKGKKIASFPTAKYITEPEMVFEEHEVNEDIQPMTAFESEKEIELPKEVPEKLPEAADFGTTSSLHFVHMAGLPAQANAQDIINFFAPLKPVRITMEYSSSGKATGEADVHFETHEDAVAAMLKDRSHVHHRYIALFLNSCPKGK
UniProt Q12849, 118-480: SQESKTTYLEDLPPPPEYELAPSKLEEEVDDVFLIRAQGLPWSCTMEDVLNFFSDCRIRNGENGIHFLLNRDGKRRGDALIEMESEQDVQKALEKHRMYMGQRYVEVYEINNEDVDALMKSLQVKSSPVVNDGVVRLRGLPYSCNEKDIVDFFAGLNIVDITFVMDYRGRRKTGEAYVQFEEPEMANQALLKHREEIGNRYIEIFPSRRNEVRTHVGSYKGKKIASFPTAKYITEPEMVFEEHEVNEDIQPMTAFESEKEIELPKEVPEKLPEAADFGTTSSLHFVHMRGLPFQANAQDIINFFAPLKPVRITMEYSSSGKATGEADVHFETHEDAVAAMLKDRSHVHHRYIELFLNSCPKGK

How the values were obtained:
[1] = molecular target: GRSF1 mutant (qRRM mutant) Q155A,W159A,E223A,R255A,Y259A,E320A,R406A,F410A,E470A (Homo sapiens) (UniProt Q12849); assay: EMSA; details: 75 ug/ml heparin, EMSA: 5 nM RNA, 0-2560 nM protein, 10 mM Tris-HCl pH 8.0, 2.5 mM KCl, 30 mM NaCl, 1 mM EDTA, 0.2 mM DTT, 30 min at 30 C, 7% PAGE, recombinant protein, residues 118-480, protein details: N-terminal 6xHis-SUMO, cleaved by SUMO protease, label: 5'-32P
[2] = molecular target: GRSF1 wild type (Homo sapiens) (UniProt Q12849); assay: EMSA; details: 75 ug/ml heparin, EMSA: 5 nM RNA, 0-2560 nM protein, 10 mM Tris-HCl pH 8.0, 2.5 mM KCl, 30 mM NaCl, 1 mM EDTA, 0.2 mM DTT, 30 min at 30 C, 7% PAGE, recombinant protein, residues 118-480, protein details: N-terminal 6xHis-SUMO, cleaved by SUMO protease, label: 5'-32P

Sequence | binding result [1] | binding result [2]
GAAGCGGGGGAGGGGGGGUUUGGUGGAAAUUUU [Mito3] | binds more weakly | binds
GCGCUGUGACUAGUAUGUUGAGUCCUGUAAGUAGCAGAGUGAUAUUUGAUCACGAGAACGUCGUUACUAGCACCCA [tRNA-like mutant] | – | binds more weakly
GGGCUGUGACUAGUAUGUUGAGUCCUGUAAGUAGGAGAGUGAUAUUUGAUCAGGAGAACGUGGUUACUAGCACCCA [tRNA-like] | binds more weakly | –

A weaker result is weaker than the reference pair of the same experiment. For some of these results: Construct, isoform or probe ends are uncertain for at least one entry. For some of these results: At least one verdict rests on a figure or table, not on a statement of the authors.
